Taken from: PubChem BioAssay AID493246 (Drosophila RNAi Screening Center, 2011)

Assay: 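Genome-wide search for dsRNAs that reduce cell number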 (primary screen)
Cell system: Drosophila Kc and S2R+ cells
Reagents: long dsRNA against Drosophila genes
Measured: 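Raw, unnormalised count of remaining cells in each well; per-plate z-scores of cell number underlie the calls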
Reading the numbers: Kc cell number and S2R+ cell number: higher = more cells remaining
Hit rule: 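Active when the per-plate z-score of cell number is 3 or more in the direction of fewer cells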
The screen tested about 21,000 reagents; below is a random part of those that have a named target and a result. In the full data, 429 (2%) got an active call. 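Values are raw and not normalised between plates; calls rest on per-plate z-scores that were not deposited.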 A number with no mark means an inactive call. Reagents against one gene are numbered here. A plus sign joins genes that one reagent is predicted to hit. Reagent sequences are not shown. The record does not give: the amount of reagent, the time to read-out.

predicted target	dsRNA no.	Kc cell number, rep 1	Kc cell number, rep 2	S2R+ cell number, rep 1	S2R+ cell number, rep 2
CG10026 (GeneID 35226)	1	1.87e6	1.99e6	1.32e6	2.74e5
CG11583 (GeneID 326206)	1	1.40e6	1.48e6	1.02e6	1.03e6
CG2964 (GeneID 33475)	1	1.52e6	1.75e6	1.08e6	1.12e6
Cpr49Ah (GeneID 36354)	1	1.39e6	1.46e6	1.18e6	1.33e6
CG14277 (GeneID 34129)	1	1.45e6	1.55e6	1.19e6	1.28e6
rdgBbeta (GeneID 37011)	1	1.67e6	1.72e6	1.13e6	1.36e6
Cyp1 (GeneID 32595)	1	6.39e5		9.33e5	
Spec2 (retired record) (GeneID 3772539)	1	1.43e6	1.52e6	1.23e6	1.35e6
Nox (GeneID 5740310)	1	1.51e6	1.58e6	1.14e6	1.26e6
Nox (GeneID 5740310)	2	1.53e6	1.59e6	1.09e6	1.25e6
CG34195 (GeneID 37018)	1	1.58e6	1.62e6	1.26e6	1.57e6
Fdx2 (GeneID 38530)	1	1.67e6	1.56e6	9.90e5	1.28e6
CG30158 (GeneID 50149)	1	1.31e6	1.51e6	1.01e6	1.13e6
CG30158 (GeneID 50149)	2	1.50e6	1.54e6	1.20e6	1.36e6
CG30158 (GeneID 50149)	3	1.53e6	1.59e6	1.23e6	1.36e6
CG30158 (GeneID 50149)	4	1.57e6	1.65e6	1.24e6	1.35e6
CG5131 (GeneID 35057)	1	1.61e6	1.73e6	1.19e6	1.35e6
fuss (GeneID 43835)	1	1.55e6	1.59e6	1.07e6	1.18e6
trus (GeneID 41540)	1	1.81e6	1.82e6	1.14e6	1.32e6
CG5768 (GeneID 42915)	1	1.50e6	1.47e6	1.21e6	1.16e6
CG4957 (GeneID 34374)	1	1.90e6	1.88e6	1.22e6	1.39e6
drongo (GeneID 33263)	1	1.35e6	1.35e6	9.62e5	1.10e6
Fife (GeneID 38337)	1	1.26e6	1.39e6	1.10e6	1.02e6
CG9577 (GeneID 33016)	1	1.51e6	1.53e6	1.06e6	1.18e6
ana1 (GeneID 42927)	1	1.87e6	1.90e6	1.34e6	1.41e6
CG12909 (GeneID 36087)	1	1.46e6	1.52e6	1.02e6	1.13e6
CG6435 (GeneID 36894)	1	1.71e6	1.68e6	1.35e6	1.58e6
sPLA2 (GeneID 35665)	1	1.58e6	1.66e6	1.28e6	1.44e6
Ser12 (GeneID 33406)	1	1.43e6	1.48e6	9.80e5	1.16e6
CG4218 (GeneID 34848)	1	1.69e6	1.69e6	1.32e6	1.57e6
CG5556 (GeneID 33320)	1	1.75e6	1.85e6	1.15e6	1.27e6
Nplp1 (GeneID 38003)	1	1.39e6	1.47e6	1.10e6	1.08e6
CG14286 (GeneID 42280)	1	1.39e6	1.39e6	1.02e6	1.14e6
CG32532 (GeneID 32943)	1	1.53e6	1.56e6	1.08e6	1.24e6
CG32532 (GeneID 32943)	2	1.55e6	1.56e6	1.10e6	1.21e6
CG32532 (GeneID 32943)	3	1.56e6	1.58e6	1.11e6	1.25e6
Mybbp1A (GeneID 31010)	1	5.21e5		8.59e5	
CG11298 (GeneID 37553)	1	1.62e6	1.70e6	1.24e6	1.34e6
tilB (GeneID 33130)	1	1.44e6	1.46e6	1.00e6	1.08e6
CG12229 (GeneID 39945)	1	1.43e6	1.37e6	1.25e6	1.31e6
CG3942 (GeneID 41489)	1	1.54e6	1.49e6	1.29e6	1.35e6
CG33191 + Pif1B	1	1.37e6	1.47e6	1.08e6	1.30e6
CG32536 + CG32537	1	1.37e6	1.33e6	9.83e5	1.19e6
NKAIN (GeneID 37979)	1	1.32e6	1.39e6	1.05e6	1.00e6
CG5890 (GeneID 43126)	1	1.41e6	1.48e6	9.59e5	1.11e6
Glg1 (GeneID 40382)	1	1.48e6	1.52e6	1.28e6	1.35e6
Glg1 (GeneID 40382)	2	1.61e6	1.87e6	1.24e6	1.33e6
Glg1 (GeneID 40382)	3	1.68e6	1.75e6	1.44e6	1.52e6
CG6980 (GeneID 42955)	1	1.54e6	1.52e6	1.17e6	1.22e6
CG15784 (GeneID 31461)	1	1.44e6	1.52e6	1.05e6	1.21e6
Tim17b1 (GeneID 40635)	1	1.59e6	1.74e6	1.20e6	1.32e6
Acp53Ea (GeneID 36874)	1	1.57e6	1.62e6	1.23e6	1.34e6
chp (GeneID 43690)	1	4.67e5		7.69e5	
CG14764 (GeneID 35749)	1	1.38e6	1.42e6	9.52e5	1.12e6
CG14764 (GeneID 35749)	2	1.33e6	1.47e6	1.09e6	1.09e6
CG14764 (GeneID 35749)	3	1.44e6	1.49e6	1.29e6	1.46e6
INPP5E (GeneID 39404)	1	1.33e6	1.37e6	1.29e6	1.30e6
NK7.1 (GeneID 41747)	1	1.57e6	1.63e6	1.18e6	1.24e6
Ude (GeneID 42953)	1	1.55e6	1.59e6	1.17e6	1.24e6

In a second layout: entries from further up
Fdx2 (GeneID 38530)
- Kc cell number, rep 1: 1.67e6
- Kc cell number, rep 2: 1.56e6
- S2R+ cell number, rep 1: 9.90e5
- S2R+ cell number, rep 2: 1.28e6

CG30158 (GeneID 50149) #1
- Kc cell number, rep 1: 1.31e6
- Kc cell number, rep 2: 1.51e6
- S2R+ cell number, rep 1: 1.01e6
- S2R+ cell number, rep 2: 1.13e6

CG30158 (GeneID 50149) #2
- Kc cell number, rep 1: 1.50e6
- Kc cell number, rep 2: 1.54e6
- S2R+ cell number, rep 1: 1.20e6
- S2R+ cell number, rep 2: 1.36e6

CG30158 (GeneID 50149) #3
- Kc cell number, rep 1: 1.53e6
- Kc cell number, rep 2: 1.59e6
- S2R+ cell number, rep 1: 1.23e6
- S2R+ cell number, rep 2: 1.36e6

CG30158 (GeneID 50149) #4
- Kc cell number, rep 1: 1.57e6
- Kc cell number, rep 2: 1.65e6
- S2R+ cell number, rep 1: 1.24e6
- S2R+ cell number, rep 2: 1.35e6

CG5131 (GeneID 35057)
- Kc cell number, rep 1: 1.61e6
- Kc cell number, rep 2: 1.73e6
- S2R+ cell number, rep 1: 1.19e6
- S2R+ cell number, rep 2: 1.35e6

fuss (GeneID 43835)
- Kc cell number, rep 1: 1.55e6
- Kc cell number, rep 2: 1.59e6
- S2R+ cell number, rep 1: 1.07e6
- S2R+ cell number, rep 2: 1.18e6
